Measured values: ChEMBL document CHEMBL4196091 (Eur J Med Chem, 2018)

By UniProt entry, the sequences of proteins in these tests, tags left out. Where a name states a change or a piece, a line headed by the entry shows the natural chain unless it says otherwise.
UniProt P68371: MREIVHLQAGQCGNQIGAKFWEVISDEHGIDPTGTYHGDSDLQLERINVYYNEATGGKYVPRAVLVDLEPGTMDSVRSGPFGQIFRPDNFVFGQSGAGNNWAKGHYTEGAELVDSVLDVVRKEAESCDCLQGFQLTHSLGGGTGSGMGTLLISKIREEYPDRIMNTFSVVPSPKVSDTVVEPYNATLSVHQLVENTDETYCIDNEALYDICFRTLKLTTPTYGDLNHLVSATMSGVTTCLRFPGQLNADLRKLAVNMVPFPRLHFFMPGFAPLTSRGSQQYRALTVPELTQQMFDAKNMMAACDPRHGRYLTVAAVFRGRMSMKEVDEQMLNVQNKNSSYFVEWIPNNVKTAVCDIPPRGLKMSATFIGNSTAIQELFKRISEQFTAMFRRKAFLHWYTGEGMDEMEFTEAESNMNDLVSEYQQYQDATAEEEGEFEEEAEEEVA
UniProt Q9H4B7: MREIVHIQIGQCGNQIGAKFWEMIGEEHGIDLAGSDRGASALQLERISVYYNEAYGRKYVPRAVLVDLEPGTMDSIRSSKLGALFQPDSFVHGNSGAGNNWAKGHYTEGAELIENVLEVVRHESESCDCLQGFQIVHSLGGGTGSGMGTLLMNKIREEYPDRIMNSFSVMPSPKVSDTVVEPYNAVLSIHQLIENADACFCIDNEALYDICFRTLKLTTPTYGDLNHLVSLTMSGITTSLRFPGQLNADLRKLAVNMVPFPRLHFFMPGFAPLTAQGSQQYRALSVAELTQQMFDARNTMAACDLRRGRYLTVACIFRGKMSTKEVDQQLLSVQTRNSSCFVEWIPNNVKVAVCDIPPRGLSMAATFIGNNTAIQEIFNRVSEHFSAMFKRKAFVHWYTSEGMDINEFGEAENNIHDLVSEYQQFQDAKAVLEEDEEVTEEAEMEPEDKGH
UniProt P0DPH7: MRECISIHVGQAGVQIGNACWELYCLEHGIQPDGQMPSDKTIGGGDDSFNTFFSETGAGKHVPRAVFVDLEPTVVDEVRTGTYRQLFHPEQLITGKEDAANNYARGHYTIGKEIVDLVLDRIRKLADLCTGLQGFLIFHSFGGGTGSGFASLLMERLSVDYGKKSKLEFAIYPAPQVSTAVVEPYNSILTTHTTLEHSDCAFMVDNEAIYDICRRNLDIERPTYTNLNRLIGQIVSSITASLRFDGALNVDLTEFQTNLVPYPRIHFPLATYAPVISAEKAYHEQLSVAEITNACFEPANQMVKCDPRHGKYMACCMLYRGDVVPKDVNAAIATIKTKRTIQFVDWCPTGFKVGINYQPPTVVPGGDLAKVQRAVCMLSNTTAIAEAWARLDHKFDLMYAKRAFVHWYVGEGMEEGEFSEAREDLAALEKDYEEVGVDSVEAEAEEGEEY
UniProt P68366: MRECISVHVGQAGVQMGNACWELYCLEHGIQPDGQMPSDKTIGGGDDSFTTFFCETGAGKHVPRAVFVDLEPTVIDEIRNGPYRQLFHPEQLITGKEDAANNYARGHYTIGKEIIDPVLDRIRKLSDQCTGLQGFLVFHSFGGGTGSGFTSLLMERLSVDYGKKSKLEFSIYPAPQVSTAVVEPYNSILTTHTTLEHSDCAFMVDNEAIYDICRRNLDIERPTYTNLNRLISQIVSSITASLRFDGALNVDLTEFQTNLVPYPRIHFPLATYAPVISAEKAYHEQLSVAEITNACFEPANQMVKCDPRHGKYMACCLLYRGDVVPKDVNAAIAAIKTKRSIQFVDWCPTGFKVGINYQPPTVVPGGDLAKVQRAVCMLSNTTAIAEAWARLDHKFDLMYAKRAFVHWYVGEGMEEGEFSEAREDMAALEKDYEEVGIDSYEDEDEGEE
UniProt Q13509: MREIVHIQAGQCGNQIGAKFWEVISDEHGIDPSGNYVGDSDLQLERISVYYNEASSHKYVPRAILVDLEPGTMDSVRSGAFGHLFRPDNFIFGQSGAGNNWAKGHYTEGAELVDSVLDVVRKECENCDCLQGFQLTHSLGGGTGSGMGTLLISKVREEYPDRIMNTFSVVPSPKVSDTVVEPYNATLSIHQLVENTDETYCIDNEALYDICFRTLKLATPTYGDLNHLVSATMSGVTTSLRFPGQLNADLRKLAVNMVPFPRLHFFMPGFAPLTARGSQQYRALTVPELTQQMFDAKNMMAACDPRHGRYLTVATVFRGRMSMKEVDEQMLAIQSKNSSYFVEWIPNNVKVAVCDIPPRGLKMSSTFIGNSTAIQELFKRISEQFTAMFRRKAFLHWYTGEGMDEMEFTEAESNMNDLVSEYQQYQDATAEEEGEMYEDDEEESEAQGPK
UniProt Q71U36: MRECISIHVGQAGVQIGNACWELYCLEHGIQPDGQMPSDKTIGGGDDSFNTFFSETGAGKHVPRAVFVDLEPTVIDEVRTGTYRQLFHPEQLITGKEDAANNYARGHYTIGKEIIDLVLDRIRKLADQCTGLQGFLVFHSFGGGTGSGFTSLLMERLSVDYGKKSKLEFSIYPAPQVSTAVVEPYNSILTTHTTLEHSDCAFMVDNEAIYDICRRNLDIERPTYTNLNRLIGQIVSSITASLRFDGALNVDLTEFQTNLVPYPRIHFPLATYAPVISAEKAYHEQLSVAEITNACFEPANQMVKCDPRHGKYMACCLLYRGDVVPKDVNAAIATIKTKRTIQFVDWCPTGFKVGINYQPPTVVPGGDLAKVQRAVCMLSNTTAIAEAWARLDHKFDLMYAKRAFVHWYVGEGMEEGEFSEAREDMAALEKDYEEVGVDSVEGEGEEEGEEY
UniProt P04350: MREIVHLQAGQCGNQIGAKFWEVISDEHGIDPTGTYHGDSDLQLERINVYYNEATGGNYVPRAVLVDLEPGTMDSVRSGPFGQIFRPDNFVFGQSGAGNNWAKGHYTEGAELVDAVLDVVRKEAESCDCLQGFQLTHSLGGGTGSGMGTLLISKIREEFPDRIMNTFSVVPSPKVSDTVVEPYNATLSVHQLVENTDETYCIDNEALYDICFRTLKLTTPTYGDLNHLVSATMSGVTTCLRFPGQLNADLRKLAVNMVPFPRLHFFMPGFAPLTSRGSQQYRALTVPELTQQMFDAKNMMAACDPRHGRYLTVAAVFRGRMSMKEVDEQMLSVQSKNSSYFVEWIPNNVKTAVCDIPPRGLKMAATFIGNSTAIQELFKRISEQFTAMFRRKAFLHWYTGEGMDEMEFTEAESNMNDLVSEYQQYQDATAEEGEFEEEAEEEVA
UniProt Q3ZCM7: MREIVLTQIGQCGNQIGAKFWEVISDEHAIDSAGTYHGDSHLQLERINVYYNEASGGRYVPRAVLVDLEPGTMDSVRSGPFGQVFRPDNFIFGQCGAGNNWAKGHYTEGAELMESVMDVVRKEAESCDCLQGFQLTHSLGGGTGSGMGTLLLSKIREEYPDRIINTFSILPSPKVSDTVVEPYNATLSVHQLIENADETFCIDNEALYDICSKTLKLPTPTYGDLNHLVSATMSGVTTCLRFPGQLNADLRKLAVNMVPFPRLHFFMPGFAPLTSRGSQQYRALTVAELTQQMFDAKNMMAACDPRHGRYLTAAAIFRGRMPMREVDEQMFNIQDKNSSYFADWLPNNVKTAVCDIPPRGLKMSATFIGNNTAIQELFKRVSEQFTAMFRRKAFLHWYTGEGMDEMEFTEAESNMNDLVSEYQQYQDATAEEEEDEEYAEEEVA
UniProt P07437: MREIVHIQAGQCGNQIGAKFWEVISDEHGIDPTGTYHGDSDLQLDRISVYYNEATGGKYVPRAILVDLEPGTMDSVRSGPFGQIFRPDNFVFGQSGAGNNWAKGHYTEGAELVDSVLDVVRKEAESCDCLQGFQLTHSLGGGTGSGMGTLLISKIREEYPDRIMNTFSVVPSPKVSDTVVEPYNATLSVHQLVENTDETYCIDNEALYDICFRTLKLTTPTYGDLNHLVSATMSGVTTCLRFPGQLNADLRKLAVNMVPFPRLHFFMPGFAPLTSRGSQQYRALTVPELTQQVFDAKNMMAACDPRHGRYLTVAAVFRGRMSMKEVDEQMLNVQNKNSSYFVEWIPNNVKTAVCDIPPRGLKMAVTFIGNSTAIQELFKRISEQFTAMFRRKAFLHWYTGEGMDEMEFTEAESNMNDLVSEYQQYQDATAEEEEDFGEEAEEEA
UniProt P68363: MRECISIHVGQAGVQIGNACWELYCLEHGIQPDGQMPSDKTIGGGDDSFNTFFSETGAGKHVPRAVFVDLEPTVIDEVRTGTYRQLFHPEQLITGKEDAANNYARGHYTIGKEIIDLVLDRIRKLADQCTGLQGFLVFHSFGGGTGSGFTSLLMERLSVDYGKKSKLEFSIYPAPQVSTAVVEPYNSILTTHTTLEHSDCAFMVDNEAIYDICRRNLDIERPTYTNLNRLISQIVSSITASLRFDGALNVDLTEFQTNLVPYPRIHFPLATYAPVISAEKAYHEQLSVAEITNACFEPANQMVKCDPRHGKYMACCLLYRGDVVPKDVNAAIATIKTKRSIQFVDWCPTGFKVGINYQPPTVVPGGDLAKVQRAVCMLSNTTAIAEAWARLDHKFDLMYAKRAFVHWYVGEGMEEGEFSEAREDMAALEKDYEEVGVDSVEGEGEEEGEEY
UniProt Q9BQE3: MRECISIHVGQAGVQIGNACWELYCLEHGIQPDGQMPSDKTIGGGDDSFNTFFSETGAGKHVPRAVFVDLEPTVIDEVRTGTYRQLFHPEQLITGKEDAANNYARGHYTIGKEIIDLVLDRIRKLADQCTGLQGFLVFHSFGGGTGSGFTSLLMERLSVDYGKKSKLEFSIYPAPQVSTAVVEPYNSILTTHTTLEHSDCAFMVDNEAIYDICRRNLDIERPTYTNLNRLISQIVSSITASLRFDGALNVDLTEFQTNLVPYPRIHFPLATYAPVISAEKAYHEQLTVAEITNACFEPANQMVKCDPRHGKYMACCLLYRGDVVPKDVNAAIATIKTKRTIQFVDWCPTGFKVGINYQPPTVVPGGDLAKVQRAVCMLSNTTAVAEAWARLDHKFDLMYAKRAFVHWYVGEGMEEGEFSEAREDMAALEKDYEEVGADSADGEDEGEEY
UniProt Q6PEY2: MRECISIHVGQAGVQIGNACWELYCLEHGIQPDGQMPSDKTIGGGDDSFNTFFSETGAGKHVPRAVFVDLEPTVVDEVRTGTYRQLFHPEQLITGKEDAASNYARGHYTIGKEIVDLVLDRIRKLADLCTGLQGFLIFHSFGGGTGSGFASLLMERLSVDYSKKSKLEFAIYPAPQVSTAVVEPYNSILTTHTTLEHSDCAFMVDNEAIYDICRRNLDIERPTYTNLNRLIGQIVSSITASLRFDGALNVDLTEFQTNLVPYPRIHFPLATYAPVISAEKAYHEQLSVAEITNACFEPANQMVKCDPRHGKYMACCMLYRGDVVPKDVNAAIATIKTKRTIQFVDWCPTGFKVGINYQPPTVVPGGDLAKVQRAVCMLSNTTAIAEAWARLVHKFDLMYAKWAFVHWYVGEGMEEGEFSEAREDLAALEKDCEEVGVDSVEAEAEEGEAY
UniProt Q13885: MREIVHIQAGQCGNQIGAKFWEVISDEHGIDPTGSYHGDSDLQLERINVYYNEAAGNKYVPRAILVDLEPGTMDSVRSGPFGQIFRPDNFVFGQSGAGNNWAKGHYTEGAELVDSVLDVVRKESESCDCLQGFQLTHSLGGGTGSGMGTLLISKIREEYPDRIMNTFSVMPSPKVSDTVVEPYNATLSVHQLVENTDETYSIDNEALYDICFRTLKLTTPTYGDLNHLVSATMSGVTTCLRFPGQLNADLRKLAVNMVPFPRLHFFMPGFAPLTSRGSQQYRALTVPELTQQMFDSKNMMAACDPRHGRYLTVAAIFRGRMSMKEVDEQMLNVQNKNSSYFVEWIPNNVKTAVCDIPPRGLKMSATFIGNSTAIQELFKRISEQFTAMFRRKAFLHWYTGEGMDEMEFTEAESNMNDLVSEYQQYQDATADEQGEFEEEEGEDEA
UniProt Q9BUF5: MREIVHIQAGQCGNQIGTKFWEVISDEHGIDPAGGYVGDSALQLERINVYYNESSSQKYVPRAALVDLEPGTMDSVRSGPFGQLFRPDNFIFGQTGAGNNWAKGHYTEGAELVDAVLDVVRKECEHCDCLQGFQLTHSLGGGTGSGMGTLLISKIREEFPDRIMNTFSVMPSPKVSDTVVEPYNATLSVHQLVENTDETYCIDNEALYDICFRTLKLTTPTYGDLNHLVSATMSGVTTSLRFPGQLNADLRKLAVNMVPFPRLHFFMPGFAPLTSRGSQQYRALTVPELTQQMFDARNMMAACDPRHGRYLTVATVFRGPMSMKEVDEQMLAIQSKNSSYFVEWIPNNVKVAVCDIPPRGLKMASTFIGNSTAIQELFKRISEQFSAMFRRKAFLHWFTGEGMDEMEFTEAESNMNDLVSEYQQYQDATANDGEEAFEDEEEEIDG

How the values were obtained:
[1] = Selectivity index, ratio of IC50 for HEK293 cells to IC50 for human HT-29 cells
Tubulin (Homo sapiens) = Tubulin (Homo sapiens) (UniProt P68371+Q9H4B7+P0DPH7+P68366+Q13509+Q71U36+P04350+Q3ZCM7+P07437+P68363+Q9BQE3+Q6PEY2+Q13885+Q9BVA1+Q9BUF5); assay: Inhibition of tubulin polymerization (unknown origin) in glycerol-assembly buffer assessed as time required to reach 50% of polymerization equilibrium at 27.5 uM measured every 30 secs for 2 hrs in presence of GTP (reference value: 16.5 +/- 0.8 min); type: protein-complex assay
MCF7 = assay: Antiproliferative activity against human MCF7 cells after 2 days by MTT assay; type: functional, cell-based; conditions: MCF7, 48 h
HEK293 = assay: Antiproliferative activity against HEK293 cells after 2 days by MTT assay; type: ADME, cell-based; conditions: Homo sapiens, HEK293, 48 h
[2] = Selectivity index, ratio of IC50 for HEK293 cells to IC50 for human MCF7 cells
HT-29 = assay: Antiproliferative activity against human HT-29 cells after 2 days by MTT assay; type: functional, cell-based; conditions: HT-29, 48 h
A549 = assay: Antiproliferative activity against human A549 cells after 2 days by MTT assay; type: functional, cell-based; conditions: A549, 48 h
[3] = Selectivity index, ratio of IC50 for HEK293 cells to IC50 for human A549 cells

With `COc1cc2c(c(OC)c1OC)-c1ccc(OC)c(=O)cc1[C@@H](N)CC2` the selectivity ratio [1] was 2, the IT50 (Tubulin (Homo sapiens)) was 27 min and the IC50 (MCF7) was 15.5 nM. The IC50 (HEK293) was 25.1 nM, the selectivity ratio [2] was 1.6 and the IC50 (HT-29) was 12.4 nM. It also gave an IC50 (A549) of 16.8 nM and a selectivity ratio [3] of 1.5.
